From PubChem BioAssay AID602313 (National Center for Advancing Translational Sciences (NCATS), 2012)
In all, about 390,000 compounds went through this assay and about 760 (0.19%) were called active. The inconclusive results got no clear call from the source; some entries with a clear call stand among them for comparison. Calls follow the shape of the dose curve; as a rule, active = well fitted inhibition curve with a large enough effect; inconclusive = small, poorly fitted or top-dose-only effect; inactive = flat fitted curve, though single readings scatter. Potencies beside an inconclusive call are fits to weak or partial responses and may not hold up.

Assay: qHTS for Inhibitors of Vif-A3F Interactions: qHTS; also: nearly all actives have a fitted effect of over 65% in size; as to activity, negative = active: % of control where 0% means no effect
Conditions: HeLa A3F-eYFP + Vif (tagged APOBEC3F with the HIV-1 protein that degrades it), YFP fluorescence increase; series mostly up to 46.1 µM; activity, negative = active: at the top concentration
Outline: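 Fluorescence increase (Ex 488/Em 500-530) after overnight compound treatment at 37 deg C flags inhibition of Vif-driven A3F-eYFP loss in stable HeLa A3F-eYFP/Vif cells seeded overnight beforehand.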
Potency is read from the fitted curve at half-maximal effect.

Q: For `COc1ccc(-c2cnnc(N/N=C/c3ccc(O)cc3)n2)cc1`, which “activity, negative = active” value is on record?
A: inactive: -5.34%

Q: For `CCS(=O)(=O)c1ccc2oc(SCC(=O)N3c4ccccc4CC3C)nc2c1` (centres undefined), which Potency is on record?
A: inconclusive: 35.5 µM [inhibitor, single point]

Q: Which Potency does the source give for `Oc1ccc(/C=N/N2CCCCC2)c(O)c1O` here?
A: inconclusive: 2.51 µM [inhibitor, partial curve, poor fit]

Q: With `CCOCCCNC(=O)NC(CCC(C)C)c1c(-n2cccc2)sc2c1CCN(C)C2` (centres undefined) as the compound, how does the “activity, negative = active” value read?
A: inactive: -18%

Q: With `Cc1cn([C@H]2C[C@H](O)[C@@H](CNS(=O)(=O)N3CCCC3)O2)c(=O)[nH]c1=O` as the compound, how does the “activity, negative = active” value read?
A: inactive: 0.942%

Q: With `c1csc(-c2nc3ccccn3c2NC2CCCCC2)c1` as the compound, how does the Potency read?
A: inconclusive: 35.5 µM [inhibitor, single point]

Q: Which Potency does the source give for `COc1ccc(CNC(=O)C2CCN(S(=O)(=O)c3cccc4nonc34)CC2)cc1` here?
A: inconclusive: 2.82 µM [inhibitor, partial curve, poor fit]

Q: Which “activity, negative = active” value does the source give for `COc1cc(CNCCc2ccc(S(N)(=O)=O)cc2)ccc1OCc1ccc(Cl)cc1` here?
A: inactive: -3.55%

Q: Which “activity, negative = active” value does the source give for `O=C(O)CC(C(=O)O)N1C(=O)/C(=C/C=C/c2ccco2)SC1=S` (centres undefined) here?
A: inactive: 2.76%

Q: With `CCOC(=O)c1c(NC(=O)COC(=O)c2ncc(Cl)c(Cl)c2Cl)sc(C(=O)N(C)C)c1C` as the compound, how does the Potency read?
A: inconclusive: 28.2 µM [inhibitor, single point]

Q: Which Potency does the source give for `CC(=O)c1ccc2c(c1)Nc1ccccc1S2` here?
A: inconclusive: 11.2 µM [inhibitor, single point]

Q: Which “activity, negative = active” value does the source give for `O=C(COC(=O)C1CCC(=O)N1)Nc1ccc(Oc2ccccc2)cc1` (centres undefined) here?
A: inactive: -1.7%

Q: With `O=C1NC(C(=O)O)=CC(c2ccc([N+](=O)[O-])cc2)N1` (centres undefined) as the compound, how does the “activity, negative = active” value read?
A: inactive: 3.92%

Q: For `O=[N+]([O-])c1ccc(-c2nn(-c3ccccc3)cc2/C=N/n2c(-c3cccs3)n[nH]c2=S)cc1`, which Potency is on record?
A: inconclusive: 17.8 µM [inhibitor, single point]

Q: Which Potency does the source give for `C=CCNC(=O)NC(=O)CN1C(=O)NC(c2ccccc2)(c2ccccc2)C1=O` here?
A: inconclusive: 35.5 µM [inhibitor, single point]

Q: For `Cc1[nH]n(-c2ccccc2)c(=O)c1N=Nc1ccccc1O`, which Potency is on record?
A: inconclusive: 35.5 µM [inhibitor, single point]

Q: For `COc1ccc(/C=C(/C#N)c2nc(-c3ccc(-c4ccccc4)cc3)cs2)cc1OC`, which Potency is on record?
A: inconclusive: 6.31 µM [inhibitor, partial curve, poor fit]

Q: With `CC1CC(C)CN(S(=O)(=O)c2ccc(C(=O)Nc3sccc3C(N)=O)cc2)C1` (centres undefined) as the compound, how does the Potency read?
A: inconclusive: 35.5 µM [inhibitor, single point]

Q: For `COc1ccc(S(=O)(=O)N2CCOCC2)cc1NC(=O)c1cc(=O)[nH]c2ccccc12`, which Potency is on record?
A: inconclusive: 22.4 µM [inhibitor, single point]

Q: With `COc1ccc(-c2c(C)nn3c(N4CCN(c5ccccc5)CC4)cc(C)nc23)cc1OC` as the compound, how does the Potency read?
A: inconclusive: 15.8 µM [inhibitor, single point]

Q: Which “activity, negative = active” value does the source give for `Cc1cc(OC(=O)c2ccc(Cl)cc2Cl)c([N+](=O)[O-])c(=O)[nH]1` here?
A: inactive: -3%

Q: For `Cc1cc(C)cc(NC(=O)C(OC(=O)c2ccc(NC(=O)CC#N)cc2)c2ccccc2)c1` (centres undefined), which Potency is on record?
A: inconclusive: 35.5 µM [inhibitor, single point]

Q: Which Potency does the source give for `Cc1cccc(/C(N)=N/OC(=O)c2ccc(Cl)cc2Cl)c1` here?
A: inconclusive: 6.31 µM [inhibitor, single point]

Q: Which “activity, negative = active” value does the source give for `CC(=O)c1ccccc1NC(=O)CSCc1nc2sc(C)c(C)c2c(=O)[nH]1` here?
A: inactive: 2.73%

Q: Which Potency does the source give for `CC(C)=CC1C(C(=O)NCCc2ccccc2)C1(C)C` (centres undefined) here?
A: inconclusive: 3.16 µM [inhibitor, full curve]

Q: Which Potency does the source give for `COc1cc(OC)cc(C(=O)NCC(=O)OCC(=O)Nc2ncc(Cl)cc2Cl)c1` here?
A: inconclusive: 1.26 µM [inhibitor, full curve]

Q: For `CC(=O)Nc1ccc(NC(=O)CSc2nnnn2-c2ccc(F)cc2)cc1`, which Potency is on record?
A: inconclusive: 3.16 µM [inhibitor, single point]

Q: With `O=C(NCc1ccccn1)C1CCN(Cc2cnn(-c3ccccc3)c2-n2cccc2)CC1` as the compound, how does the “activity, negative = active” value read?
A: inactive: -2.15%

Q: With `CC(=O)Nc1ccccc1-c1nc2ccccc2n(CC(=O)c2ccc(C)c(C)c2)c1=O` as the compound, how does the Potency read?
A: inconclusive: 15.8 µM [inhibitor, single point]

Q: For `COc1cc(/C=C2\SC(=O)N(CC(=O)Nc3ccccc3F)C2=O)cc(Cl)c1O`, which Potency is on record?
A: inconclusive: 10 µM [inhibitor, partial curve, poor fit]

Q: With `COc1ccc(C(=O)/C=C/c2ccccc2C(F)(F)F)cc1` as the compound, how does the “activity, negative = active” value read?
A: inactive: -10.8%

Q: Which Potency does the source give for `CCOC(=O)N1CCN(C(=S)NC(=O)c2ccc(F)c(F)c2)CC1` here?
A: inconclusive: 35.5 µM [inhibitor, single point]

Q: Which Potency does the source give for `CCc1cccc(CC)c1-n1c(SCC(=O)c2c(N)n(C)c(=O)n(C)c2=O)nnc1-c1cccnc1` here?
A: inconclusive: 35.5 µM [inhibitor, single point]

Q: Which “activity, negative = active” value does the source give for `Cc1cc(NC(=O)CN(C)CCOc2ccccc2)ccc1Br` here?
A: inactive: 10%

Q: For `O=C(O)C(CCc1ccccc1)(Cc1ccccc1)C(=O)O`, which Potency is on record?
A: inconclusive: 11.2 µM [inhibitor, single point]

Q: For `CN(C)c1nc(-c2cccs2)cc(C(F)(F)F)c1C#N`, which Potency is on record?
A: inconclusive: 11.2 µM [inhibitor, partial curve, poor fit]

Q: With `CN(C)c1ccc(/C=C/c2nc3ccccc3c(=O)[nH]2)cc1` as the compound, how does the Potency read?
A: active: 10 µM

Q: Which Potency does the source give for `Cc1cccc(NC(=O)C2CCCN(S(=O)(=O)c3cccc4nonc34)C2)c1C` (centres undefined) here?
A: inconclusive: 35.5 µM [inhibitor, single point]

Q: Which “activity, negative = active” value does the source give for `C[C@@H]1CN([C@H](C)CO)S(=O)(=O)c2ccc(C#Cc3ccccc3F)cc2O[C@H]1CN(C)C(=O)c1ccc2c(c1)OCO2` here?
A: inactive: -0.515%

Q: Which Potency does the source give for `Fc1ccc(/C=N/NC(=S)NCCc2ccccc2)cc1F` here?
A: inconclusive: 6.31 µM [inhibitor, single point]

Q: For `CC(=O)/C=C1/C(=O)Nc2ccccc21`, which “activity, negative = active” value is on record?
A: inactive: 3.3%

Q: Which Potency does the source give for `COc1ccc(C2=NN(c3nc4ccccc4s3)C(=O)C2)cc1` here?
A: inconclusive: 35.5 µM [inhibitor, single point]

Q: Which Potency does the source give for `Cc1ccc(Cn2c(CNS(=O)(=O)c3c(C)cc(C)cc3C)nc3cccnc32)cc1` here?
A: inconclusive: 35.5 µM [inhibitor, single point]

Q: With `CCC(NC(=O)C(C)NC)C(=O)N1CCCC1C(=O)NC1CCCc2ccccc21` (centres undefined) as the compound, how does the “activity, negative = active” value read?
A: inactive: 0.735%

Q: For `O=C(COc1ccccc1)c1cn(CC(=O)N2CCCC2)c2ccccc12`, which Potency is on record?
A: inconclusive: 4.47 µM [inhibitor, single point]

Q: For `CN(Cc1ccccc1)C(=O)C1CCN(S(=O)(=O)c2cc([N+](=O)[O-])ccc2Cl)CC1`, which Potency is on record?
A: inconclusive: 35.5 µM [inhibitor, single point]

Q: With `COc1ccccc1N/C=C/c1onc(C)c1[N+](=O)[O-]` as the compound, how does the Potency read?
A: inconclusive: 2.51 µM [inhibitor, partial curve, poor fit]

Q: Which Potency does the source give for `CC(=O)Nc1nc(-c2ccccc2)cc(-c2ccco2)c1C#N` here?
A: inconclusive: 35.5 µM [inhibitor, single point]

Q: With `CCc1cccc(C)c1NC(=S)NCc1ccccc1` as the compound, how does the Potency read?
A: inconclusive: 35.5 µM [inhibitor, single point]

Q: For `CCOC(=O)NC1CCc2cc(OC)c(OC)c(OC)c2-c2ccc(SC)c(=O)cc21` (centres undefined), which “activity, negative = active” value is on record?
A: inactive: -7.85%

Q: For `O=C(NC(=S)N1CCOCC1)c1ccc([N+](=O)[O-])cc1`, which “activity, negative = active” value is on record?
A: inactive: 4.51%

Q: Which Potency does the source give for `CCOC(=O)n1c(=O)n(Cc2cccc(C)c2)c2ccccc21` here?
A: inconclusive: 0.562 µM [inhibitor, partial curve, poor fit]

Q: Which Potency does the source give for `CC(NC(=S)NC1CCCCC1)c1ccc(C(C)(C)C)cc1` (centres undefined) here?
A: inconclusive: 6.31 µM [inhibitor, single point]

Q: With `COc1ccccc1Nc1cc2cc(Br)ccc2c(=O)[nH]1` as the compound, how does the Potency read?
A: inconclusive: 22.4 µM [inhibitor, single point]

Q: Which Potency does the source give for `CC(Sc1nc2sc3c(c2c(=O)n1-c1ccccc1)CCCC3)C(=O)O` (centres undefined) here?
A: inconclusive: 12.6 µM [inhibitor, partial curve, poor fit]

Q: For `COC(=O)c1ccc(N2NC(=O)/C(=C/c3ccc(-c4ccc(Cl)c(C(=O)O)c4)o3)C2=O)cc1`, which “activity, negative = active” value is on record?
A: inactive: -14.5%

Q: Which “activity, negative = active” value does the source give for `Cc1ccc(N2CC(C(=O)Nc3nnc(C)s3)CC2=O)cc1` (centres undefined) here?
A: inactive: -0.143%

Q: With `O=C1Cc2c([nH]c3ccc(Br)cc23)-c2ccccc2N1` as the compound, how does the Potency read?
A: inconclusive: 35.5 µM [inhibitor, single point]

Q: With `c1ccc(Nc2nc(-c3ccccn3)cs2)cc1` as the compound, how does the Potency read?
A: inconclusive: 2.82 µM [inhibitor, full curve, poor fit]

Q: For `Cc1cc(C)c2c(c1)-c1c(ssc1=S)C(C)(C)N2C(=O)CSc1nncn1C`, which “activity, negative = active” value is on record?
A: inactive: -16.1%

Q: With `Cc1c(/C=N/NC(N)=O)c2ccccn2c1C(=O)c1ccc(F)cc1` as the compound, how does the “activity, negative = active” value read?
A: inactive: -0.166%

Q: Which “activity, negative = active” value does the source give for `CCOC(=O)Nc1oc2ccccc2c(=O)c1CN1CCOCC1` here?
A: inactive: -17.5%

Q: Which Potency does the source give for `CCOC(=O)C1=C(O)c2ccccc2C(=O)/C1=C\c1ccc(C)cc1` here?
A: active: 25.1 µM

Q: Which “activity, negative = active” value does the source give for `Cc1ccc(NC(=O)CSCn2nnc3c(=O)[nH]c(Cc4ccc(F)cc4)nc32)c(C)c1` here?
A: inactive: 1.19%

Q: For `COc1ccc(C(=O)O)cc1S(=O)(=O)NC1CCN(Cc2ccccc2)CC1`, which Potency is on record?
A: inconclusive: 25.1 µM [inhibitor, single point]

Q: For `CC(CC1C(C#N)=C(N)SC(N)=C1C#N)c1ccccc1` (centres undefined), which Potency is on record?
A: inconclusive: 35.5 µM [inhibitor, single point]

Q: Which Potency does the source give for `Cc1cccc(C)c1NC(=O)COC(=O)c1cc(-c2cccnc2)nc2ccccc12` here?
A: inconclusive: 35.5 µM [inhibitor, partial curve, poor fit]

Q: For `CCCCCCN1C=CC=C/C1=C\C=C(C#N)C#N`, which Potency is on record?
A: inconclusive: 12.6 µM [inhibitor, partial curve, poor fit]

Q: Which Potency does the source give for `O=C(c1cc(-c2ccc(Cl)s2)nc2ccccc12)N1CCOCC1` here?
A: inconclusive: 35.5 µM [inhibitor, single point]
